Test results reported in the supplement of paper PMC12823440, “Inhibitors supercharge kinase turnover through native proteolytic circuits” (Nature, 2025).
The list shows a part of the results. The calls rarely recur for the same compound in another form.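 In K562 cells expressing nanoluciferase-fused kinases, luminescence was recorded at 4 h intervals between 2 and 18 h, normalized as percent of control with DMSO at 100% and a positive control at 0%. A significant (2 sigma) signal drop marks a time point as decreased. The authors' rule for a hit is not shown and takes in more than the number of time points.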

Amino acid sequences for entries named in this document (tags omitted). A change or cut given only in a name is not applied to a line headed by its entry.
UniProt P48730: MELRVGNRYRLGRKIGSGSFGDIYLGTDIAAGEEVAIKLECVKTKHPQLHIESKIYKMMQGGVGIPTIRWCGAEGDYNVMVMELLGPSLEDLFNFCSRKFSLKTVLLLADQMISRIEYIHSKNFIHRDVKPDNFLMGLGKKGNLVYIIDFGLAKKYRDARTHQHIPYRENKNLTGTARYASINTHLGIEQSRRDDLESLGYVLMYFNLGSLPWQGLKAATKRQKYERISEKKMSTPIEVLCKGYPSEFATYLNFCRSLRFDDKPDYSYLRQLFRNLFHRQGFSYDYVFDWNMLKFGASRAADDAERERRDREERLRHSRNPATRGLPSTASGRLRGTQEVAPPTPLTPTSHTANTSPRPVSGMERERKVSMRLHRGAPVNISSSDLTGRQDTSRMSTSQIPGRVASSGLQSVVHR
UniProt Q08345: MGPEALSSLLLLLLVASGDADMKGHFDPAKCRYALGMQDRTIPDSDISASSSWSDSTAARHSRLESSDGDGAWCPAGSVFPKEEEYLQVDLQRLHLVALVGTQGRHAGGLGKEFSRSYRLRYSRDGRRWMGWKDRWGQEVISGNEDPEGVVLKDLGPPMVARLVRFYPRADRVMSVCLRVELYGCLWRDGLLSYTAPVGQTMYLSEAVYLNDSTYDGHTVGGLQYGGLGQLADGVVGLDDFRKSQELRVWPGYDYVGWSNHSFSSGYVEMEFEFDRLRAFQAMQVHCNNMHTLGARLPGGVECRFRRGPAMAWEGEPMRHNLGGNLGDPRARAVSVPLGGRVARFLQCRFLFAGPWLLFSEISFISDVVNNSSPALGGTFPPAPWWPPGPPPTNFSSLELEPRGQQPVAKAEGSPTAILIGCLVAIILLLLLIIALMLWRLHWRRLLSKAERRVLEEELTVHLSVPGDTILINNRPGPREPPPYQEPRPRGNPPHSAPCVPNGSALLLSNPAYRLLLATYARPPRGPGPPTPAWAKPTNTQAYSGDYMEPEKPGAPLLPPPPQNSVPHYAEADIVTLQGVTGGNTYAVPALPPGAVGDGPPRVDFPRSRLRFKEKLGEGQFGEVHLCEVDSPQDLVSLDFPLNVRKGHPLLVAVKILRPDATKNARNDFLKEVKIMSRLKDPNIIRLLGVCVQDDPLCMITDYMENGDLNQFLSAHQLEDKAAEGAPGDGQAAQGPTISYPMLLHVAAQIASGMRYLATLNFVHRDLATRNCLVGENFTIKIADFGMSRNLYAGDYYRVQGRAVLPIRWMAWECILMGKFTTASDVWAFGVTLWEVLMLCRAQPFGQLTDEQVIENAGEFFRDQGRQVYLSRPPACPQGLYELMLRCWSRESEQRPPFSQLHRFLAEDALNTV
UniProt Q9Y463, whole entry, looked up: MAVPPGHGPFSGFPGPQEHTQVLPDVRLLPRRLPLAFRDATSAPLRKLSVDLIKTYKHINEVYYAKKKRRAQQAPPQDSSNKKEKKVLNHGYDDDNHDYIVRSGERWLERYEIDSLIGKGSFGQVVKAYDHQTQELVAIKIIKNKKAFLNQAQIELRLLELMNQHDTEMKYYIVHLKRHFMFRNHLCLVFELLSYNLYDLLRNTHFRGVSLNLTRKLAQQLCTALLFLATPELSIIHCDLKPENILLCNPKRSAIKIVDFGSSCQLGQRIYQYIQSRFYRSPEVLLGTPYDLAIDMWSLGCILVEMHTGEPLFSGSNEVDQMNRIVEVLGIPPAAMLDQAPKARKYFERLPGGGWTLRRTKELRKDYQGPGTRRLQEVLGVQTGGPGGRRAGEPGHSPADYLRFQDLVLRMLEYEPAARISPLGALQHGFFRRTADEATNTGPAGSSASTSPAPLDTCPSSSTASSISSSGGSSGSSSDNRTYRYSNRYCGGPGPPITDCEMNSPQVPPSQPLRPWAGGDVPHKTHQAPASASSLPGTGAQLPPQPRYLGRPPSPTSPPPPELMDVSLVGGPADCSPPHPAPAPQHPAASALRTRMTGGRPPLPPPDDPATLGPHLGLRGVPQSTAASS
UniProt Q92630: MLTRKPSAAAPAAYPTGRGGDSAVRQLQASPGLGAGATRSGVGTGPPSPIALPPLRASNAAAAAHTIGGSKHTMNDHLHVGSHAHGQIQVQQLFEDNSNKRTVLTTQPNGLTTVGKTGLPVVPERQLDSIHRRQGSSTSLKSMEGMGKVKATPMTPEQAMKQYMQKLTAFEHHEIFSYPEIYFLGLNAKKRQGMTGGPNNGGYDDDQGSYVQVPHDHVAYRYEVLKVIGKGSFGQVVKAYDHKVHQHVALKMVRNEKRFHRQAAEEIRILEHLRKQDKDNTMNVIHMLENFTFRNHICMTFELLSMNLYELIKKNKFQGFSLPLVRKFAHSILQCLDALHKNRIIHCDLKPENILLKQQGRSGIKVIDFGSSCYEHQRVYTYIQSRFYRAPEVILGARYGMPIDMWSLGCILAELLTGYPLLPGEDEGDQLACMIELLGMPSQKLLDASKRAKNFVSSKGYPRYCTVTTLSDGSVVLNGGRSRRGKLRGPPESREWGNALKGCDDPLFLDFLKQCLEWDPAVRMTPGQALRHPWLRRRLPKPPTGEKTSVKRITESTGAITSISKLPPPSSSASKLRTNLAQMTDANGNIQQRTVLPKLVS
UniProt P29317, whole entry: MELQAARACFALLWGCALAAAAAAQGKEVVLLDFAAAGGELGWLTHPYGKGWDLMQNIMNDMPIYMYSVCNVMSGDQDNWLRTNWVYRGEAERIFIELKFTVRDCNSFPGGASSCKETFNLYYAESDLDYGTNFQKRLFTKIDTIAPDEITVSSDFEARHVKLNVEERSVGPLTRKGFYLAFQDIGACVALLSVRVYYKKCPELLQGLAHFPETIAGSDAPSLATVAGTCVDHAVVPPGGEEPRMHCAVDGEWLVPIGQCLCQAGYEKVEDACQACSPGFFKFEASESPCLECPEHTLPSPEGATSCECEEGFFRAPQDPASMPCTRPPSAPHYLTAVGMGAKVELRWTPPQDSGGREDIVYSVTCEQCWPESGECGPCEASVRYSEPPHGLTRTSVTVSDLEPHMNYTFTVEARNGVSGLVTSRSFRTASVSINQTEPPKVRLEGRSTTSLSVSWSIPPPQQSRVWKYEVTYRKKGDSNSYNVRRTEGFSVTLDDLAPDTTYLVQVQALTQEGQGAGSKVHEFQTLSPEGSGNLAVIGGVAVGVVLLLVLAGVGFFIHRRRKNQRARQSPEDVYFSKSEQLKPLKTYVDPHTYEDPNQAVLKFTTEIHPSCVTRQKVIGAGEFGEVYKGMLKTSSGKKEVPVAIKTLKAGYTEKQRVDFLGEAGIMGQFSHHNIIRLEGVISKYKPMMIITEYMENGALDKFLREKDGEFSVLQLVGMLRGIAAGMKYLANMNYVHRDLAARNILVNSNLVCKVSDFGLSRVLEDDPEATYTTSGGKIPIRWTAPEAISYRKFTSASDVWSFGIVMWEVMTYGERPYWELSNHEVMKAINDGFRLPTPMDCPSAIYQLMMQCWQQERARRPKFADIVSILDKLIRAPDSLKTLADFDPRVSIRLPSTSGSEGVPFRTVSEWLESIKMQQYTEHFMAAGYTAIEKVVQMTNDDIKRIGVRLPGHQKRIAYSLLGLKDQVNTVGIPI
UniProt P21860, whole entry: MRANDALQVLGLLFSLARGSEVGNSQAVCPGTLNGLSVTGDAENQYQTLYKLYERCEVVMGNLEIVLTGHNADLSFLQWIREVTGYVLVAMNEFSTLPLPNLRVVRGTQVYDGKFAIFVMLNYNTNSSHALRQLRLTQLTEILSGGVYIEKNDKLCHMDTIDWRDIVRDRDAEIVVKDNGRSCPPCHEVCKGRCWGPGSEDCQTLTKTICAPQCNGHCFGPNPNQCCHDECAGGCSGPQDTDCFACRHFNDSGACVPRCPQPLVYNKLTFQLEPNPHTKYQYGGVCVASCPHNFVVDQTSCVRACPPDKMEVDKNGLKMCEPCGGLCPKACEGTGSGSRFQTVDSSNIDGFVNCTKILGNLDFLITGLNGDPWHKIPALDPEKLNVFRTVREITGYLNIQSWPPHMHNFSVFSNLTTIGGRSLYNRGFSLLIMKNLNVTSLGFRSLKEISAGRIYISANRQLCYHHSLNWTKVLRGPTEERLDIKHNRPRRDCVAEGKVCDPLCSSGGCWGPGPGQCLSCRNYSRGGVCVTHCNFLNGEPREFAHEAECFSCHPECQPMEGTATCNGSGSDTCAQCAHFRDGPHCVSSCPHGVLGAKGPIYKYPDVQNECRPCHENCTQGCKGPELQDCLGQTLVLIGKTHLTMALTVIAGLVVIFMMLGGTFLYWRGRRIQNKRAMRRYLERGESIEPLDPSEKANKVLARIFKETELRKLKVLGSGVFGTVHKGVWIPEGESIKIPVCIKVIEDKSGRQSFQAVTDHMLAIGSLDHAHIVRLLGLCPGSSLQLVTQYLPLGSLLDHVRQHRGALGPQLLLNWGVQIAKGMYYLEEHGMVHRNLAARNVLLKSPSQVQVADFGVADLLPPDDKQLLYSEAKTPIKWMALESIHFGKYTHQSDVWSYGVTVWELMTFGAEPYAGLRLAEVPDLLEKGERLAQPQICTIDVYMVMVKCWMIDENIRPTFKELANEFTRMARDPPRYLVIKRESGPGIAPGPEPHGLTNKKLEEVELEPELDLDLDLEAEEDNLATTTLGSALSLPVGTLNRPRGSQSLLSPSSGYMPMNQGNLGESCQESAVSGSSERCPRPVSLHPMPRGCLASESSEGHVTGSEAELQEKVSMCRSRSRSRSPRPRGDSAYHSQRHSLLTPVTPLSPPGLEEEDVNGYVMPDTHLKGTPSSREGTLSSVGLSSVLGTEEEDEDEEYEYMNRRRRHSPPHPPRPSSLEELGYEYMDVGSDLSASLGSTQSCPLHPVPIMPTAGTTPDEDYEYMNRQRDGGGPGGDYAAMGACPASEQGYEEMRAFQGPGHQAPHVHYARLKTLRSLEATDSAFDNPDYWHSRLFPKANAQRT
UniProt P11362, whole entry, looked up: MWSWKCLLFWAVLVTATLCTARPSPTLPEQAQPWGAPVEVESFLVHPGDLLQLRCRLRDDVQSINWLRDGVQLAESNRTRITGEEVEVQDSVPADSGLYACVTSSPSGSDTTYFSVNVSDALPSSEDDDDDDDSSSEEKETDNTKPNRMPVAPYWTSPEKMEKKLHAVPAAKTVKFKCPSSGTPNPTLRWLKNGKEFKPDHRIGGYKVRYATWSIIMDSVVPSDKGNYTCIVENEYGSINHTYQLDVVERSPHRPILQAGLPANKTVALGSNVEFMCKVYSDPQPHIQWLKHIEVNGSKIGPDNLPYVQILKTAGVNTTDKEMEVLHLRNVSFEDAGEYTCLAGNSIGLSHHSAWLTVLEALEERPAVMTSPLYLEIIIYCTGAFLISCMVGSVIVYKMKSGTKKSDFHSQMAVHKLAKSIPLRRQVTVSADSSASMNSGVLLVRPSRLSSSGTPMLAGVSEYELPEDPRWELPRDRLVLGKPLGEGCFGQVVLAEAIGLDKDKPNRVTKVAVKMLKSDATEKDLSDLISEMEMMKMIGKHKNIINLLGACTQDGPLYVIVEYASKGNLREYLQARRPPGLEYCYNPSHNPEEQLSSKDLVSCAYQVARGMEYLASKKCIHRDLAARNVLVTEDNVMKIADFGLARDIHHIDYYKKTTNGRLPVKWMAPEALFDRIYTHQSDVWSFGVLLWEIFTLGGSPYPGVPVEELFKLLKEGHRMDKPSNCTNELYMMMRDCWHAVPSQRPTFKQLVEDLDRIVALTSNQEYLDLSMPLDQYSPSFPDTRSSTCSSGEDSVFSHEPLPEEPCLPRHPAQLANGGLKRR
UniProt P21802, whole entry, looked up: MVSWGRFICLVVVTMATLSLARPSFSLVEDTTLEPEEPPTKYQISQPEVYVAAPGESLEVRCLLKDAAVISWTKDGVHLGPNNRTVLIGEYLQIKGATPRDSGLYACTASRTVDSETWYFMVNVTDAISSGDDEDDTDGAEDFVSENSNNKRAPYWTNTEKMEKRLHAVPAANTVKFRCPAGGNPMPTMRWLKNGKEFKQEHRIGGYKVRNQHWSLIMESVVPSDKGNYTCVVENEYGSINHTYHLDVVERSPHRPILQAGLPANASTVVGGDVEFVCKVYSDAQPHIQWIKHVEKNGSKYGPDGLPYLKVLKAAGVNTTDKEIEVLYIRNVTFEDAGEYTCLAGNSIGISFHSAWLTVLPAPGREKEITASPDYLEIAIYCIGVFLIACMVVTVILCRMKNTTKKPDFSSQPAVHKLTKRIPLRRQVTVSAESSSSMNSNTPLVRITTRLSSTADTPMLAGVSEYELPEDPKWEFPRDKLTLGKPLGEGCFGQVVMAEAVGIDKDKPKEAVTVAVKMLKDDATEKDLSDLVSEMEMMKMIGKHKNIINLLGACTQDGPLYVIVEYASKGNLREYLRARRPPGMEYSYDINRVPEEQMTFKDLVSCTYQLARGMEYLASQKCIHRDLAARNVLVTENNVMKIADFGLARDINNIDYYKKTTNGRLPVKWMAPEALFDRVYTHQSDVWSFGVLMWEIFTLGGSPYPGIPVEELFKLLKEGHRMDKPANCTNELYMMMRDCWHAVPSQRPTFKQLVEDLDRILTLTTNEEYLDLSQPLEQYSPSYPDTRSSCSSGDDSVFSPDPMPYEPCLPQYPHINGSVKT

How the values were obtained:
Test in all cases: number of time points (of 5) at which kinase-Nluc abundance scored as decreased, DMSO-normalised (count); higher = more persistent destabilization
Settings in all cases: K562; 2-18 h
CSNK1A1 = CSNK1A1 (UniProt P48729)
CSNK1D = CSNK1D (UniProt P48730)
DDR1 = DDR1 (UniProt Q08345)
DYRK1B = DYRK1B (UniProt Q9Y463)
DYRK2 = DYRK2 (UniProt Q92630)
EGFR = EGFR (UniProt P00533)
EGFR_G719S = EGFR_G719S (UniProt P00533)
EGFR_G719S_T790M = EGFR_G719S_T790M (UniProt P00533)
EGFR_L718V = EGFR_L718V (UniProt P00533)
EGFR_L858R = EGFR_L858R (UniProt P00533)
EGFR_L861Q = EGFR_L861Q (UniProt P00533)
EGFR_T790M = EGFR_T790M (UniProt P00533)
EPHA2 = EPHA2 (UniProt P29317)
ERBB3 = ERBB3 (UniProt P21860)
[1] = biological target: ERBB4_R711C (clone: ERBB4_mut) (UniProt Q15303)
ERN1 = ERN1 (UniProt O75460)
FGFR1 = FGFR1 (UniProt P11362)
FGFR2 = FGFR2 (UniProt P21802)
FGFR3 = FGFR3 (UniProt P22607)
FGR = FGR (UniProt P09769)

| Compound | number of time points (CSNK1A1) | number of time points (CSNK1D) | number of time points (DDR1) | number of time points (DYRK1B) | number of time points (DYRK2) | number of time points (EGFR) | number of time points (EGFR_G719S) | number of time points (EGFR_G719S_T790M) | number of time points (EGFR_L718V) | number of time points (EGFR_L858R) | number of time points (EGFR_L861Q) | number of time points (EGFR_T790M) | number of time points (EPHA2) | number of time points (ERBB3) | number of time points [1] | number of time points (ERN1) | number of time points (FGFR1) | number of time points (FGFR2) | number of time points (FGFR3) | number of time points (FGR) |
| --- | --- | --- | --- | --- | --- | --- | --- | --- | --- | --- | --- | --- | --- | --- | --- | --- | --- | --- | --- | --- |
| CCCCNc1ncc2c(-c3ccc(F)cc3)nn(CC3CCC(N)CC3)c2n1 (stereo not given) (2.5 µM) | 0 | 0 | 0 | 0 | 4 | 0 | 0 | 0 | 0 | 0 | 0 | 0 | 0 | 0 | 0 | 0 | 0 | 0 | 0 | 0 |
| COc1cc2nccc(Nc3cccc(Oc4ccccc4)c3)c2cc1OC (2.5 µM) | 0 | 0 | 0 | 0 | 0 | 0 | 0 | 0 | 0 | 0 | 0 | 0 | 0 | 0 | 0 | 0 | 0 | 0 | 0 | 0 |
| COc1ccc(CN2CCC(c3ccc4nc(C(=O)N5CCN(Cc6ccc(C(F)(F)F)cc6)CC5)[nH]c4c3)CC2)cn1 (2.5 µM) | 0 | 0 | 2 | 0 | 2 | 0 | 0 | 1 | 0 | 0 | 0 | 0 | 0 | 2 | 0 | 0 | 0 | 0 | 0 | 0 |
| NCCNS(=O)(=O)c1ccc(Cl)c2ccncc12 [CKI-7 (free base)] (10 µM) | 0 | 0 | 0 | 0 | 0 | 0 | 0 | 0 | 0 | 0 | 0 | 0 | 0 | 0 | 0 | 0 | 0 | 0 | 0 | 0 |
| Oc1ccc(-c2cnc3ccc(NCc4ccco4)nn23)cc1 [IRAK inhibitor 2] (2.5 µM) | 0 | 0 | 0 | 0 | 0 | 0 | 0 | 0 | 0 | 0 | 0 | 0 | 0 | 0 | 0 | 0 | 0 | 0 | 0 | 0 |
| Cn1c(N2CCO[C@@H](c3ccc(F)cc3)C2)nc(-c2ccncn2)cc1=O (10 µM) | 0 | 0 | 0 | 0 | 0 | 0 | 0 | 0 | 0 | 0 | 0 | 0 | 0 | 0 | 0 | 0 | 0 | 0 | 0 | 0 |
| CC(=O)Nc1nc(C)c(-c2cc(C)c3c(c2)CN([C@@H](C)C2CC2)C3=O)s1 (10 µM) | 0 | 0 | 0 | 0 | 0 | 0 | 0 | 0 | 0 | 0 | 0 | 0 | 0 | 0 | 0 | 0 | 0 | 0 | 0 | 0 |
| CS(=O)(=O)c1ccc([C@@H](CC2CCCC2)C(=O)Nc2nccs2)cc1 (10 µM) | 0 | 0 | 0 | 0 | 0 | 0 | 0 | 0 | 0 | 0 | 0 | 0 | 0 | 0 | 0 | 0 | 0 | 0 | 0 | 0 |
| Cc1ccc(C2CC(=O)NC(SCC(=O)Nc3nccs3)=C2C#N)cc1 (stereo not given) [Necrostatin-34] (10 µM) | 0 | 0 | 0 | 0 | 0 | 0 | 0 | 0 | 0 | 0 | 0 | 0 | 0 | 0 | 0 | 0 | 0 | 0 | 0 | 0 |
| COC(=O)N1CCN(C2CCC(Nc3nc(Nc4cnn(C)c4)nc4ccc(CC#N)nc34)CC2)CC1 (stereo not given) (10 µM) | 0 | 0 | 0 | 0 | 0 | 0 | 0 | 0 | 0 | 0 | 0 | 0 | 0 | 0 | 0 | 0 | 0 | 0 | 0 | 0 |
| C[C@H](Nc1cc2c(-c3ccc4c(c3)OCO4)noc2cn1)c1ccccc1 (10 µM) | 0 | 0 | 0 | 0 | 0 | 0 | 0 | 0 | 0 | 0 | 0 | 0 | 0 | 0 | 0 | 0 | 0 | 0 | 0 | 0 |
| O=C1Cc2ccccc2N1 [Oxindole] (10 µM) | 0 | 0 | 0 | 0 | 0 | 0 | 0 | 0 | 0 | 0 | 0 | 0 | 0 | 0 | 0 | 0 | 0 | 0 | 0 | 0 |
| N#Cc1cc(-c2ccnc(Nc3ccc(N4CCOCC4)cc3)n2)ccc1OC1CCOCC1 (10 µM) | 4 | 0 | 0 | 0 | 0 | 2 | 0 | 0 | 0 | 0 | 0 | 0 | 0 | 0 | 0 | 0 | 0 | 0 | 0 | 0 |
| O=C(C#Cc1ccccc1)c1cccc([N+](=O)[O-])c1 (10 µM) | 0 | 0 | 0 | 0 | 0 | 0 | 0 | 0 | 0 | 0 | 0 | 0 | 0 | 0 | 0 | 0 | 0 | 0 | 0 | 0 |
| Cc1ccc(Nc2cc(N[C@@H]3CCCC[C@@H]3N)nnc2C(N)=O)nc1C (2 µM) | 0 | 0 | 0 | 0 | 0 | 0 | 0 | 0 | 0 | 0 | 0 | 0 | 0 | 0 | 0 | 0 | 0 | 0 | 0 | 0 |
| O=C(Nc1ccnc(NC(=O)C2CC2)c1)c1c(Cl)cccc1Cl (10 µM) | 0 | 0 | 0 | 0 | 3 | 0 | 0 | 0 | 0 | 0 | 1 | 0 | 0 | 2 | 2 | 0 | 0 | 3 | 0 | 0 |
| CCOC(=O)c1c(Nc2ccccc2Cl)oc(/C=C2\C=Nc3ncccc32)c1O (10 µM) | 0 | 0 | 0 | 0 | 0 | 0 | 0 | 0 | 0 | 0 | 0 | 0 | 0 | 0 | 0 | 0 | 0 | 0 | 0 | 0 |

Entries of single compounds, looked up by structure. Order of values: number of time points (CSNK1A1) | number of time points (CSNK1D) | number of time points (DDR1) | number of time points (DYRK1B) | number of time points (DYRK2) | number of time points (EGFR) | number of time points (EGFR_G719S) | number of time points (EGFR_G719S_T790M) | number of time points (EGFR_L718V) | number of time points (EGFR_L858R) | number of time points (EGFR_L861Q) | number of time points (EGFR_T790M) | number of time points (EPHA2) | number of time points (ERBB3) | number of time points [1] | number of time points (ERN1) | number of time points (FGFR1) | number of time points (FGFR2) | number of time points (FGFR3) | number of time points (FGR)
`Oc1ccc(-c2cnc3ccc(NCc4ccco4)nn23)cc1` [IRAK inhibitor 2] (2.5 µM) in the list: 0 | 0 | 0 | 0 | 0 | 0 | 0 | 0 | 0 | 0 | 0 | 0 | 0 | 0 | 0 | 0 | 0 | 0 | 0 | 0
`CCCCNc1ncc2c(-c3ccc(F)cc3)nn(CC3CCC(N)CC3)c2n1` (stereo not given) (2.5 µM) in the list: 0 | 0 | 0 | 0 | 4 | 0 | 0 | 0 | 0 | 0 | 0 | 0 | 0 | 0 | 0 | 0 | 0 | 0 | 0 | 0
